Test results published in PubChem BioAssay AID504834 (National Center for Advancing Translational Sciences (NCATS), 2011).
The whole screen tested about 320,000 compounds, of which about 22,000 (6.9%) were called active. Inconclusive means that the source gave no clear call. Such entries were picked first, then a sample of the others. Calls come from the whole dose curve; as a rule, active = well fitted inhibition curve with a large enough effect; inconclusive = small, poorly fitted or top-dose-only effect, or another doubt; inactive = no such curve, though single readings can be large or run the other way. Potencies beside an inconclusive call are fits to weak or partial responses and may not hold up.

Assay: Primary qHTS for delayed death inhibitors of the malarial parasite plastid, 96 hour incubation
Conditions: P. falciparum luciferase reporter growth; series mostly up to 28.7 µM
In short: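 Luminescence readout: decreased luciferase signal marks inhibited growth of reporter-expressing P. falciparum in infected red cells (2% hematocrit, 0.05% parasitemia final), exposed to compound two generations (96 h, 37 C, 5% CO2).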
Potency is the fitted concentration of half-maximal effect.

SMILES | Potency
CCN(Cc1ccccc1)c1ccc(/C=C(\C#N)c2ccccn2)cc1 | inconclusive: 18.5 µM [inhibitor, single point]
N/C(=N\OC(=O)Cc1ccc(Cl)cc1)c1cccnc1 | inactive
COc1ccccc1C(=O)Nc1c[nH]c(=O)[nH]c1=O | inconclusive: 18.5 µM [inhibitor, single point]
Cc1nc(-c2ccc(NC(=O)Cc3ccccc3)cc2)cs1 | inactive
CCc1cc(-c2[nH]ncc2-c2ccc3c(c2)OCO3)c(O)cc1O | inconclusive: 16.5 µM [inhibitor, single point]
Fc1cccc(Cc2noc(CN3CCN(C4CCc5ccccc5C4)CC3)n2)c1 (stereo not drawn) | inconclusive: 18.5 µM [inhibitor, single point]
CC(C)(C)NC(=O)Cn1c(SCC(=O)NC2CCCC2)nc2ccccc21 | inconclusive: 18.5 µM [inhibitor, single point]
CCOc1ccc(CCNC(=O)c2cc(C)nc3ccccc23)cc1OCC | inconclusive: 10.4 µM [inhibitor, single point]
COc1ccc(C2Nc3ccccc3C(=O)N2c2ccc(F)cc2)cc1Cn1nnc2ccccc21 (stereo not drawn) | active: 9.28 µM
Cc1cccnc1NC(=S)Nc1ccc(Br)cc1Cl | inconclusive: 18.5 µM [inhibitor, partial curve, poor fit]
C#CCOCCOCCOCCNc1nc(N2CCN(C(=O)CCCCCCCCCCNC(=O)[C@H]([C@@H](C)CC)n3cc(CCCCCN)nn3)CC2)nc(N2CCN(C(=O)CCCCCCCCCCNC(=O)[C@H](CO)n3cc(CCCCCN)nn3)CC2)n1 | inconclusive: 0.928 µM [inhibitor, partial curve]
CCOC(=O)N1CCN(S(=O)(=O)c2ccc(C(=O)N(CCN(CC)CC)c3nc4c(C)cccc4s3)cc2)CC1 | inactive
COc1ccccc1N(Cc1ccccc1)S(=O)(=O)c1cccc(C(=O)Nc2cc(C)ccn2)c1 | inconclusive: 11.7 µM [inhibitor, single point]
CCOCc1nnc(NC(=O)CSc2ccccc2)s1 | inactive
CCOC(=O)C1=C(CSc2nc3ccccc3s2)NC(=O)NC1c1cc(C)ccc1C (stereo not drawn) | active: 9.28 µM
O=S(=O)(N/N=C\c1ccc2c(c1)OCO2)c1ccccc1 | inactive
COc1ccc(SCCN2CCN(C)CCC2=O)cc1 | inactive
Oc1ccccc1-[n+]1c(-c2ccccc2)cc(-c2ccccc2)c(O)c1-c1ccccc1 | inconclusive: 11.7 µM [inhibitor, partial curve, poor fit]
O=C(Nc1nnc(-c2ccc3c(c2)CCCC3)o1)c1ccccc1 | inconclusive: 13.1 µM [inhibitor, single point]
C=CCn1c(SCc2ccc(OC)cc2)nnc1-c1cccnc1 | inconclusive: 10.4 µM [inhibitor, single point]
Cc1oc(-c2ccccc2)cc1C(=O)Nc1cccc2ccccc12 | inactive
CC1CCN(S(=O)(=O)c2ccc(C(=O)Nc3ccccc3-c3nc4ccccc4[nH]3)cc2)CC1 | active: 7.38 µM
CCN(CC(F)(F)C(F)F)S(=O)(=O)c1ccc(NC(=O)OC)cc1 | inconclusive: 2.62 µM [inhibitor, single point]

SMILES | Potency
COc1cc2c(c(OC)c1OC)-c1ccc(O)cc1[C@@H](NC(C)=O)CC2 | inactive
c1cncc(CNCCc2ccc3c(c2)OCO3)c1 | inactive
C#CCCOC(=O)N1C2=NC(C(=O)OC)=C(C(=O)OC)[C@@H]3N(Cc4ccccc4)c4ccccc4[C@]23C[C@H]1C(=O)OC | inconclusive: 18.5 µM [inhibitor, single point]
O=C1CS/C(=N/N=C/c2ccco2)N1Cc1ccc(F)cc1 | inactive
Cc1nc2ccccn2c1C(=O)CSc1ccc(Cl)cc1Cl | inconclusive: 0.037 µM [inhibitor, full curve, poor fit]
COC(=O)c1cc(NCc2cccs2)ccc1N1CCOCC1 | active: 8.28 µM
CCOc1ccccc1N(C)C(=O)c1cc2c(=O)n(CC)c3ccccc3c2s1 | inconclusive: 7.38 µM [inhibitor, partial curve]
O=C1NC[C@@H](Cc2ccc(O)cc2)N(CCc2cccc(F)c2)C1=O | inconclusive: 10.4 µM [inhibitor, partial curve, poor fit]
COc1cc(Cl)c(C)cc1NC(=O)c1cccc(OC)c1OC | inconclusive: 13.1 µM [inhibitor, partial curve]
CCN(CC)S(=O)(=O)c1ccc(C)c(NC(=O)CNc2cccc(S(=O)(=O)N3CCOCC3)c2)c1 | inconclusive: 10.4 µM [inhibitor, single point]
Cc1cc2c(c(=O)o1)C1(C(=O)N(C)c3ccccc31)C(C#N)=C(N)O2 (stereo not drawn) | inconclusive: 10.4 µM [inhibitor, partial curve, poor fit]
Cc1ccc(NC(=O)CN2C(=O)c3ccccc3S2(=O)=O)c(C)c1 | inactive
O=C(O)c1ccc(CNS(=O)(=O)c2ccc3ccccc3c2)cc1 | inactive
Cc1cccc(C)c1NS(=O)(=O)c1ccc(-c2ccc(=O)[nH]n2)o1 | inconclusive: 10.4 µM [inhibitor, single point]
Cn1c(=O)c2c(SC3CCCC3)nc(C3CC3)nc2n(C)c1=O | inactive
CCCCn1c(N)c(N(CC)C(=O)c2cccc(OC)c2)c(=O)[nH]c1=O | inactive
Cc1ccccc1C(=O)c1cccn1CC(=O)NCCCN1CCc2ccccc2C1 | inactive
Fc1ccc2c(c1)C(c1ccncc1)=NNC(c1ccc(Br)cc1)=N2 | inconclusive: 18.5 µM [inhibitor, single point]
CN(CC(=O)Nc1ccccc1N1CCOCC1)S(=O)(=O)c1ccc(F)cc1 | inconclusive: 0.0828 µM [inhibitor, full curve, poor fit]
CN(C)c1ccc(/C=N/NC(=O)C2COc3ccccc3O2)o1 (stereo not drawn) | inactive
Cc1cc(OCc2n[nH]c(=S)n2-c2ccccc2)ccc1Cl | inconclusive: 18.5 µM [inhibitor, single point]
Cc1cc(C)n(-c2nc3ccccc3c(=O)n2OCC(=O)N(C)C)n1 | inactive
Cc1ccc(NC(=O)CNc2cc(S(=O)(=O)N3CCOCC3)ccc2NCC2CCCO2)cc1F (stereo not drawn) | inconclusive: 13.1 µM [inhibitor, single point]

A second format for four compounds above:
Cc1ccccc1C(=O)c1cccn1CC(=O)NCCCN1CCc2ccccc2C1
  Potency: inactive
Fc1ccc2c(c1)C(c1ccncc1)=NNC(c1ccc(Br)cc1)=N2
  Potency: inconclusive: 18.5 µM [inhibitor, single point]
CN(CC(=O)Nc1ccccc1N1CCOCC1)S(=O)(=O)c1ccc(F)cc1
  Potency: inconclusive: 0.0828 µM [inhibitor, full curve, poor fit]
CN(C)c1ccc(/C=N/NC(=O)C2COc3ccccc3O2)o1 (stereo not drawn)
  Potency: inactive

(next part)

SMILES | Potency
Cc1ccc(NC(=O)CCn2c(=O)[nH]c3ccsc3c2=O)cc1 | inconclusive: 3.29 µM [inhibitor, partial curve]
C/C=C/c1ccc(OCC(=O)N2CCc3cc(OC)c(OC)cc3C2)c(OC)c1 | inconclusive: 11.7 µM [inhibitor, partial curve]
CCc1nn2c(N)c(/C=C3\C=Nc4ccccc43)c(=O)nc2s1 | inconclusive: 0.0294 µM [inhibitor, full curve, poor fit]
CCCN1C(=O)/C(=C/c2ccccc2OCc2ccc(C(=O)O)cc2)NC1=S | inconclusive: 18.5 µM [inhibitor, single point]
CCOc1ccc(N2CC(C(=O)NCc3ccc4c(c3)OCO4)CC2=O)cc1 (stereo not drawn) | inconclusive: 4.65 µM [inhibitor, partial curve, poor fit]
CCn1cc(/C=C(\NC(=O)c2ccccc2Cl)C(=O)N2CCN(C)CC2)c2ccccc21 | inactive
O=C(CSc1nc2ccccc2c(=O)n1-c1ccc(F)cc1)NC1CC1 | inactive
Cc1ccc(C2C(C#N)=C3N=C(N)c4ccccc4N3C3=C2C(=O)CCC3)cc1 (stereo not drawn) | inconclusive: 11.7 µM [inhibitor, single point]
Cc1cc(C(=O)COC(=O)Cc2n[nH]c(=O)c3ccccc23)c(C)n1-c1ccc2c(c1)OCCO2 | inconclusive: 11.7 µM [inhibitor, partial curve, poor fit]
COc1ccc(NC(=S)NN2CCN(C)CC2)cc1 | inconclusive: 10.4 µM [inhibitor, single point]
O=C(COC(=O)Cn1cnc2ccccc2c1=O)Nc1ccc(Cl)c(C(F)(F)F)c1 | inconclusive: 18.5 µM [inhibitor, single point]
COC(=O)CCCC1=CC2=C(c3ccccc3)C(=O)C(C)(OC(=O)C3CCCC3)C(=O)C2=CN1Cc1ccc2c(c1)OCO2 (stereo not drawn) | inconclusive: 11.7 µM [inhibitor, single point]
CCCCCCn1c(N)c(C#N)c2ccc([N+](=O)[O-])cc2c1=O | inconclusive: 4.15 µM [inhibitor, single point]
Cc1ccc2nc(-c3ccc(NC(=S)NC4CC(C)(C)NC(C)(C)C4)cc3)sc2c1 | inactive
CC1(C)CC(=O)C2=C(C1)Nc1ccccc1S2 | inconclusive: 18.5 µM [inhibitor, single point]
COCCn1c(-c2ccc(NC(C)=O)cc2)nc2c1c(=O)[nH]c(=O)n2CC(C)C | inactive
Cc1ccc(S(=O)(=O)N2CCN(CC(O)c3ccccc3)CC2)cc1C (stereo not drawn) | inactive
CC(c1cccs1)N(C)Cc1nc(CCc2ccccc2)no1 (stereo not drawn) | inconclusive: 11.7 µM [inhibitor, single point]
O=C(CSc1nnc2c(n1)[nH]c1ccc(F)cc12)NCc1ccc(F)cc1 | inconclusive: 18.5 µM [inhibitor, single point]
CCN1CCN(c2ccc(S(=O)(=O)N3CCCCC3)cc2NC(=O)/C=C/c2cccc(OC)c2OC)CC1 | inconclusive: 7.38 µM [inhibitor, partial curve, poor fit]
O=S(=O)(CCSc1nc2ccccc2s1)c1nc2ccccc2s1 | inactive
Cc1ccc(C(=O)Nc2ccccc2-c2ccccc2)cc1S(=O)(=O)Nc1cccc(C)c1C | inactive
